{
  "source": "patent US10041933B2",
  "about": "“Modulators of the interaction of astrin and raptor, and uses thereof in cancer therapy” (ALBERT-LUDWIGS-UNIVERSITÄT FREIBURG, priority 2013, dated 2018)",
  "origin": "cited, not measured here",
  "test_system": "mice",
  "details": "genetically heterogeneous mice, fed late in life; cited from earlier work",
  "note": "For at least one compound, name, drawing or mass did not settle the structure.",
  "data": [
    {"smiles": "CO[C@H]1C[C@@H]2CC[C@@H](C)[C@@](O)(O2)C(=O)C(=O)N2CCCC[C@H]2C(=O)O[C@H]([C@H](C)C[C@@H]2CC[C@@H](O)[C@H](OC)C2)CC(=O)[C@H](C)/C=C(\\C)[C@@H](O)[C@@H](OC)C(=O)[C@H](C)C[C@H](C)/C=C/C=C/C=C/1C", "note": "[Rapamycin]", "values": [
      {"measurement": "life span", "value": "extends life span"}
    ]}
  ]
}
